Measured values: patent US20060210622A1, “Surface modified particulate compositions of biologically active substances” (Skyepharma Canada Inc., priority 1999, published 2006)
At least one read-out could not be matched to a standard name with certainty.

Test: Solubilization of 20 mg drug in 1 mL non-aqueous medium (observation)
Format: physicochemical

C[C@H](CCC(=O)O)[C@H]1CC[C@H]2[C@@H]3[C@@H](O)C[C@@H]4C[C@H](O)CC[C@]4(C)[C@H]3CC[C@]12C [ursodiol]
Solubilization (observation) (20 mg in 1 mL of Miglyol 810 or triacetin): not soluble
Solubilization (observation) (20 mg in 1 mL of benzyl benzoate): found to dissolve
